In PMC11251167:
These are yes or no findings as the source states them, for the method shown. Binding seen in cells or lysates may run through a third protein. These calls come from enrichment with a bait or labelling near it, and not all partners need be listed.

Sequences of proteins named here, by UniProt entry; tags and fusion partners are left off.
UniProt Q9CWV1: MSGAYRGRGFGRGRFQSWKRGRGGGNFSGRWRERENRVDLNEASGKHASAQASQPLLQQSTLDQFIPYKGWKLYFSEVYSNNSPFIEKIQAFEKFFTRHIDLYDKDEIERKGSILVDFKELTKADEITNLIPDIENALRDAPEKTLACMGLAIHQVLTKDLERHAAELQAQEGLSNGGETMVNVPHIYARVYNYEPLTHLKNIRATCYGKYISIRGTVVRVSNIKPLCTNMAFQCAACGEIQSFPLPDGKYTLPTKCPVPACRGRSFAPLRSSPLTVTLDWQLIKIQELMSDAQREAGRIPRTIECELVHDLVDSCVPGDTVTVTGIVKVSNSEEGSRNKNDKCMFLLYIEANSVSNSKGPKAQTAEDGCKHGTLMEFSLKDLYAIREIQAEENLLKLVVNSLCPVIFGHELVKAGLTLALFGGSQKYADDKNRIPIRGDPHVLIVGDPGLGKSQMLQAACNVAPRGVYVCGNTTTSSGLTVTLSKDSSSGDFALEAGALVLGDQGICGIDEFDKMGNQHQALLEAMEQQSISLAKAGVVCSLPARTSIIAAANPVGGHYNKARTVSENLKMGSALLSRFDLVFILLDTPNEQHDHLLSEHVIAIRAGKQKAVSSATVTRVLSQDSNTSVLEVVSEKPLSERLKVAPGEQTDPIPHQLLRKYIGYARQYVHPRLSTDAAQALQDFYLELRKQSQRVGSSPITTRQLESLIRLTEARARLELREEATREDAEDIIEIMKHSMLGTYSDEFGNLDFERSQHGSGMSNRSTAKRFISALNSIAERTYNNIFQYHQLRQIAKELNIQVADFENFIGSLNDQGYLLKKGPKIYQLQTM
UniProt O70133: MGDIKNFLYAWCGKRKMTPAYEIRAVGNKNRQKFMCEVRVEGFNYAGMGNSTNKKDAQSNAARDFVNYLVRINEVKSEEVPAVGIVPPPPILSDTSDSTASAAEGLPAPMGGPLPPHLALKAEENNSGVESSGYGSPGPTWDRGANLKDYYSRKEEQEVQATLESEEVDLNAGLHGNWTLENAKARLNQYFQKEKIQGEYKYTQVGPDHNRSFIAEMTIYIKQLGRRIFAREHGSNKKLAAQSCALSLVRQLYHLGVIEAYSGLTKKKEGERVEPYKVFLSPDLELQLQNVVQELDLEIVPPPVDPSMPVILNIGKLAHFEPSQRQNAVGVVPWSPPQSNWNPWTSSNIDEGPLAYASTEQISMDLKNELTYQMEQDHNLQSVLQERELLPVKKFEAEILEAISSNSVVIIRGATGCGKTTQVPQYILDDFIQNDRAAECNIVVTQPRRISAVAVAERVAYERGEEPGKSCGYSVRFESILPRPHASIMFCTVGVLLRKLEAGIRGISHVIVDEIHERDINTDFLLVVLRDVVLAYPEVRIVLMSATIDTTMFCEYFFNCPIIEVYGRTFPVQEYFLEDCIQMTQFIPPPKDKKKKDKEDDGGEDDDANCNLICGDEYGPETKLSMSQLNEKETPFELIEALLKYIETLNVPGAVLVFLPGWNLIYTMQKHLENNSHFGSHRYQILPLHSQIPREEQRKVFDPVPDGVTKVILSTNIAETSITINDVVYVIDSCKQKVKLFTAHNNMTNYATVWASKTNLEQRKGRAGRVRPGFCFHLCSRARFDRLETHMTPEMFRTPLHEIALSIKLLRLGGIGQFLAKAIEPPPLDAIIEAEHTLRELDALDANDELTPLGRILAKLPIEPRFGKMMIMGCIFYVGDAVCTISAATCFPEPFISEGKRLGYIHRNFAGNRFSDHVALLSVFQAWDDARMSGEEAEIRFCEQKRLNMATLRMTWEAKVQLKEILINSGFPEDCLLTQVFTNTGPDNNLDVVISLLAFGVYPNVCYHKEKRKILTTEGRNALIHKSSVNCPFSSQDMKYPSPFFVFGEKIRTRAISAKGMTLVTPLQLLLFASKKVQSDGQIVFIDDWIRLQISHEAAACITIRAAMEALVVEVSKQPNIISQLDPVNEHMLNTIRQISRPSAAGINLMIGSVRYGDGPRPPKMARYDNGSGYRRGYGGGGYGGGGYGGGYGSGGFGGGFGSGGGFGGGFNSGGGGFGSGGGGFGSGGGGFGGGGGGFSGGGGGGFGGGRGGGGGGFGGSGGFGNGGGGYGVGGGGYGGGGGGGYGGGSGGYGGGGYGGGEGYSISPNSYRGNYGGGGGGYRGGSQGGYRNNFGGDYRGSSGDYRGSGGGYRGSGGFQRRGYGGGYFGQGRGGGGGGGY

Target: MCM8 (Minichromosome Maintenance 8 Homologous Recombination Repair Factor), mouse, endogenous (mouse (endogenous in P19 cells and E12.5 PGCs)) (UniProt Q9CWV1)
Assay: affinity purification with mass spectrometry; anti-MCM8 antibody IP from P19 cell lysate, IgG IP as control; in-gel digestion, LC-MS/MS

DHX9, mouse, endogenous (from UniProt O70133 1-1380)
binding: binds
